The assay has as its target SPI1 (UniProt P17947). The assay can be described thus: DAPPL (digital affinity profiling via proximity ligation, sequencing). The conditions noted are these: 10 mM Tris-HCl pH 7.5, 50 mM NaCl, 1 mM DTT, 4% glycerol, room temperature, 30 min; GST-TFs on glutathione beads, 16-mer random dsDNA library, 0.1% …; high values mean tight binding; double strand, one strand shown; scale: fold enrichment (6-mer frequency, TF over GST control).

The list shows a part of the results, in another mix than the full data. At the low end of the ranking, values are background and their order means little.

In turn, AATAGC showed a binding signal of 1.15. GATACG gave a binding signal of 1.04.

In the case of TTGTCC, the binding signal is 1.17. As for TACTTA, the figure is 1.21. In the case of GAACAT, the binding signal amounted to 1.04. The value for TACCGA was 1.12; that for CCTATC was 1.14.

On to ATCTCT, for which the binding signal amounted to 1.27.

Regarding GAATAC, the binding signal came out at 0.999. As for ATCATC, the figure is 1.14; as for AATAGA, 1.08; as for AACCTT, 1.26.

CAAATT: the binding signal is 1.15. For the sequence CACAAT, the binding signal is 1.02. For the sequence CTTTTT, the binding signal is 1.88. The value for TTTGGT was 1.27; that for TACAAG was 0.952. The value for GAAAAG was 1.3. The value for CGACGT was 1.08; that for CCGCGT was 1.12; that for CGGCTT was 1.17.

As for CTTTAA, the binding signal was found to be 1.39.

In turn, TAATAG had a binding signal of 1.2.

In turn, AATAAC came in with a binding signal of 1.18.

With ACGGCC, the binding signal worked out at 1.09.

CGACCG had a binding signal of 1.06. As for CACGCT, the figure is 1.33. The value for CCCTCG was 1.23; that for CAACCA was 1.11. As for CGGCTA, the figure is 1.16; as for TTTAGG, 1.08; as for AAGTAC, 1.62.

CTGACT yielded a binding signal of 1.27.

TTCATA returned a binding signal of 1.18. As for TCACTT, the figure is 2.11; as for TAATTT, 1.38.

The values above are taken from article PMC7862700.
